{"source": "patent US20170088609A1", "about": "“ANTICANCER COMBINATION THERAPY” (priority 2015, published 2017)", "origin": "cited, not measured here", "test_system": "T790M-containing cell lines", "details": "several preclinical models; cited from earlier work", "note": "At least one compound was matched to its structure with a doubt left.", "data": [{"compound": "CN(C)C/C=C/C(=O)Nc1cc2c(Nc3ccc(F)c(Cl)c3)ncnc2cc1O[C@H]1CCOC1", "note": "[afatinib]", "values": [{"measurement": "inhibition of T790M-containing cell lines", "value": "effectively inhibit"}]}]}
